Patent publication US20250255841A1, “METHODS FOR TREATING CYTOKINE STORM ASSOCIATED WITH ACINETOBACTER BAUMANNII INFECTIONS” (City University of Hong Kong, priority 2024, published 2025)
Some results were stated once for a whole list of compounds, not compound by compound. For at least one compound, name, drawing or mass did not settle the structure.

System: RAW264.7 cells
Assay: Cytokine ELISA of supernatant of Ab-infected RAW264.7 pretreated with inhibitors
Type: cell-based, mouse
Conditions: RAW264.7 pretreated 1 h, Ab MOI=5 for 6 h

| Structure (SMILES) | reduction of IL-6 level in supernatant | reduction of TNF-α level in supernatant |
| --- | --- | --- |
| Cc1ccc(NCCCc2ccccc2)c(N)c1 [JSH-23] | more than 5 fold | more than 5 fold |
| O=C(CCN1CCN(Cc2ccccc2)CC1)Nc1nc(-c2ccccc2)cs1 [TJ-M2010-5] | more than 5 fold | more than 5 fold |
